Reference: the supplement of paper PMC10849652
The other results are listed elsewhere or left out.

The chains behind the UniProt entries cited, without tags or fusion partners. Where a name states a change or a piece, a line headed by the entry shows the natural chain unless it says otherwise.
UniProt Q3MIX3: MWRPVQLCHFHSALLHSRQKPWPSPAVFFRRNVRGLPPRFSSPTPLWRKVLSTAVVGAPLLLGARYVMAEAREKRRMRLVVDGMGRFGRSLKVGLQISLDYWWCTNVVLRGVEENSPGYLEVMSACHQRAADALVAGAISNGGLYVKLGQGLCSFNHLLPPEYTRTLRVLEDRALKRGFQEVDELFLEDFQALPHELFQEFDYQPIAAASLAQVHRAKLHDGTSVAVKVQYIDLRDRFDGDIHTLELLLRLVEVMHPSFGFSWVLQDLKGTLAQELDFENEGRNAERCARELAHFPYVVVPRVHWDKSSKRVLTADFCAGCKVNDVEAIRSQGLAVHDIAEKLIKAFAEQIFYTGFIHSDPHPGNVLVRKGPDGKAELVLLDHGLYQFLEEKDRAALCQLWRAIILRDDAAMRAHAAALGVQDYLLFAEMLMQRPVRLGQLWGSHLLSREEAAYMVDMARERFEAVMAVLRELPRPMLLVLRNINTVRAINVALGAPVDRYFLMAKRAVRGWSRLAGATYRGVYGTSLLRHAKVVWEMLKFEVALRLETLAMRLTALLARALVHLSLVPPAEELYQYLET
UniProt Q04828: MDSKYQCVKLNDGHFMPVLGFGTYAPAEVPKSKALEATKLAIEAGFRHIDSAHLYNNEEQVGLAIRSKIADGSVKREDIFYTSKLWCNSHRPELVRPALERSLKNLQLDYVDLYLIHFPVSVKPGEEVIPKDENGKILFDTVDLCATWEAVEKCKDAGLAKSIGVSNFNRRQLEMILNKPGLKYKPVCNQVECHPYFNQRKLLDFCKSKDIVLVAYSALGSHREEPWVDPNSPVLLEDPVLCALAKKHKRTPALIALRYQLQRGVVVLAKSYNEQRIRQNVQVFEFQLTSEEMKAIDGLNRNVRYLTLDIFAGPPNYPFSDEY
UniProt Q7Z591: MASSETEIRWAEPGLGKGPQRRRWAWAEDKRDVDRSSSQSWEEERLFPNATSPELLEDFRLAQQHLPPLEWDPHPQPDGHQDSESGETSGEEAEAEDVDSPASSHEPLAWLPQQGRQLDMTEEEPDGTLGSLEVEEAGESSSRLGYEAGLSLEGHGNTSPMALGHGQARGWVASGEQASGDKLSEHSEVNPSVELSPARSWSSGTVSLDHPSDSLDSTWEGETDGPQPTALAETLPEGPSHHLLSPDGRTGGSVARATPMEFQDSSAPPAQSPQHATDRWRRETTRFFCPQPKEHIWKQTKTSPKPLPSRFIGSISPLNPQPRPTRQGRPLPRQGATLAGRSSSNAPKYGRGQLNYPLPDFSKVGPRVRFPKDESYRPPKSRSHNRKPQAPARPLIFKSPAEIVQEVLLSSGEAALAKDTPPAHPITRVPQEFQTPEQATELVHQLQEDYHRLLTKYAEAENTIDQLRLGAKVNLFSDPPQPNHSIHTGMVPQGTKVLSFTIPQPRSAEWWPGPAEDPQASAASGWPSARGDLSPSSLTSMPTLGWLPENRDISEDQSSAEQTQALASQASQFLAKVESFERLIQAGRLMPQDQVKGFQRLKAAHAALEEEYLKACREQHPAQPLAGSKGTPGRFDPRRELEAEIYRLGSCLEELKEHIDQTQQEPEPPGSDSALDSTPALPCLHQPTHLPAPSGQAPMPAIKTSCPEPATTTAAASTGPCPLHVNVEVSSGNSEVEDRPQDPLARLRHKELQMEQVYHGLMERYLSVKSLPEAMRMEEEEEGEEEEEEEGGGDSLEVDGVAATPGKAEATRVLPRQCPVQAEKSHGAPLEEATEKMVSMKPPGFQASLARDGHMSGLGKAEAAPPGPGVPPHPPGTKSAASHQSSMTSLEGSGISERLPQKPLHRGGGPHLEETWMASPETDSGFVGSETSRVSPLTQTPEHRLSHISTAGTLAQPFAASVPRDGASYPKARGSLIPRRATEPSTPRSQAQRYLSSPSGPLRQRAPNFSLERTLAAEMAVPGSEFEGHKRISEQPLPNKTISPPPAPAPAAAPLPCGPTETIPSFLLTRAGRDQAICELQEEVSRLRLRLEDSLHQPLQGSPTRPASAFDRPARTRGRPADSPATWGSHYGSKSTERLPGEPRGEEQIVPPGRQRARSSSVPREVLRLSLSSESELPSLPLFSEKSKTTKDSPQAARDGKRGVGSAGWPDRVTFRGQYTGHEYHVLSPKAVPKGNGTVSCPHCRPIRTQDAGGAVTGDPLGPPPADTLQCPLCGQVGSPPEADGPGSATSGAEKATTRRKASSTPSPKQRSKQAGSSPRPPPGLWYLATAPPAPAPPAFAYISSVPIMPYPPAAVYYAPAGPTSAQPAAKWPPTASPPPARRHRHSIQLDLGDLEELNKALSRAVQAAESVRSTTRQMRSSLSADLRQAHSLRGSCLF
UniProt Q99996, whole entry, looked up: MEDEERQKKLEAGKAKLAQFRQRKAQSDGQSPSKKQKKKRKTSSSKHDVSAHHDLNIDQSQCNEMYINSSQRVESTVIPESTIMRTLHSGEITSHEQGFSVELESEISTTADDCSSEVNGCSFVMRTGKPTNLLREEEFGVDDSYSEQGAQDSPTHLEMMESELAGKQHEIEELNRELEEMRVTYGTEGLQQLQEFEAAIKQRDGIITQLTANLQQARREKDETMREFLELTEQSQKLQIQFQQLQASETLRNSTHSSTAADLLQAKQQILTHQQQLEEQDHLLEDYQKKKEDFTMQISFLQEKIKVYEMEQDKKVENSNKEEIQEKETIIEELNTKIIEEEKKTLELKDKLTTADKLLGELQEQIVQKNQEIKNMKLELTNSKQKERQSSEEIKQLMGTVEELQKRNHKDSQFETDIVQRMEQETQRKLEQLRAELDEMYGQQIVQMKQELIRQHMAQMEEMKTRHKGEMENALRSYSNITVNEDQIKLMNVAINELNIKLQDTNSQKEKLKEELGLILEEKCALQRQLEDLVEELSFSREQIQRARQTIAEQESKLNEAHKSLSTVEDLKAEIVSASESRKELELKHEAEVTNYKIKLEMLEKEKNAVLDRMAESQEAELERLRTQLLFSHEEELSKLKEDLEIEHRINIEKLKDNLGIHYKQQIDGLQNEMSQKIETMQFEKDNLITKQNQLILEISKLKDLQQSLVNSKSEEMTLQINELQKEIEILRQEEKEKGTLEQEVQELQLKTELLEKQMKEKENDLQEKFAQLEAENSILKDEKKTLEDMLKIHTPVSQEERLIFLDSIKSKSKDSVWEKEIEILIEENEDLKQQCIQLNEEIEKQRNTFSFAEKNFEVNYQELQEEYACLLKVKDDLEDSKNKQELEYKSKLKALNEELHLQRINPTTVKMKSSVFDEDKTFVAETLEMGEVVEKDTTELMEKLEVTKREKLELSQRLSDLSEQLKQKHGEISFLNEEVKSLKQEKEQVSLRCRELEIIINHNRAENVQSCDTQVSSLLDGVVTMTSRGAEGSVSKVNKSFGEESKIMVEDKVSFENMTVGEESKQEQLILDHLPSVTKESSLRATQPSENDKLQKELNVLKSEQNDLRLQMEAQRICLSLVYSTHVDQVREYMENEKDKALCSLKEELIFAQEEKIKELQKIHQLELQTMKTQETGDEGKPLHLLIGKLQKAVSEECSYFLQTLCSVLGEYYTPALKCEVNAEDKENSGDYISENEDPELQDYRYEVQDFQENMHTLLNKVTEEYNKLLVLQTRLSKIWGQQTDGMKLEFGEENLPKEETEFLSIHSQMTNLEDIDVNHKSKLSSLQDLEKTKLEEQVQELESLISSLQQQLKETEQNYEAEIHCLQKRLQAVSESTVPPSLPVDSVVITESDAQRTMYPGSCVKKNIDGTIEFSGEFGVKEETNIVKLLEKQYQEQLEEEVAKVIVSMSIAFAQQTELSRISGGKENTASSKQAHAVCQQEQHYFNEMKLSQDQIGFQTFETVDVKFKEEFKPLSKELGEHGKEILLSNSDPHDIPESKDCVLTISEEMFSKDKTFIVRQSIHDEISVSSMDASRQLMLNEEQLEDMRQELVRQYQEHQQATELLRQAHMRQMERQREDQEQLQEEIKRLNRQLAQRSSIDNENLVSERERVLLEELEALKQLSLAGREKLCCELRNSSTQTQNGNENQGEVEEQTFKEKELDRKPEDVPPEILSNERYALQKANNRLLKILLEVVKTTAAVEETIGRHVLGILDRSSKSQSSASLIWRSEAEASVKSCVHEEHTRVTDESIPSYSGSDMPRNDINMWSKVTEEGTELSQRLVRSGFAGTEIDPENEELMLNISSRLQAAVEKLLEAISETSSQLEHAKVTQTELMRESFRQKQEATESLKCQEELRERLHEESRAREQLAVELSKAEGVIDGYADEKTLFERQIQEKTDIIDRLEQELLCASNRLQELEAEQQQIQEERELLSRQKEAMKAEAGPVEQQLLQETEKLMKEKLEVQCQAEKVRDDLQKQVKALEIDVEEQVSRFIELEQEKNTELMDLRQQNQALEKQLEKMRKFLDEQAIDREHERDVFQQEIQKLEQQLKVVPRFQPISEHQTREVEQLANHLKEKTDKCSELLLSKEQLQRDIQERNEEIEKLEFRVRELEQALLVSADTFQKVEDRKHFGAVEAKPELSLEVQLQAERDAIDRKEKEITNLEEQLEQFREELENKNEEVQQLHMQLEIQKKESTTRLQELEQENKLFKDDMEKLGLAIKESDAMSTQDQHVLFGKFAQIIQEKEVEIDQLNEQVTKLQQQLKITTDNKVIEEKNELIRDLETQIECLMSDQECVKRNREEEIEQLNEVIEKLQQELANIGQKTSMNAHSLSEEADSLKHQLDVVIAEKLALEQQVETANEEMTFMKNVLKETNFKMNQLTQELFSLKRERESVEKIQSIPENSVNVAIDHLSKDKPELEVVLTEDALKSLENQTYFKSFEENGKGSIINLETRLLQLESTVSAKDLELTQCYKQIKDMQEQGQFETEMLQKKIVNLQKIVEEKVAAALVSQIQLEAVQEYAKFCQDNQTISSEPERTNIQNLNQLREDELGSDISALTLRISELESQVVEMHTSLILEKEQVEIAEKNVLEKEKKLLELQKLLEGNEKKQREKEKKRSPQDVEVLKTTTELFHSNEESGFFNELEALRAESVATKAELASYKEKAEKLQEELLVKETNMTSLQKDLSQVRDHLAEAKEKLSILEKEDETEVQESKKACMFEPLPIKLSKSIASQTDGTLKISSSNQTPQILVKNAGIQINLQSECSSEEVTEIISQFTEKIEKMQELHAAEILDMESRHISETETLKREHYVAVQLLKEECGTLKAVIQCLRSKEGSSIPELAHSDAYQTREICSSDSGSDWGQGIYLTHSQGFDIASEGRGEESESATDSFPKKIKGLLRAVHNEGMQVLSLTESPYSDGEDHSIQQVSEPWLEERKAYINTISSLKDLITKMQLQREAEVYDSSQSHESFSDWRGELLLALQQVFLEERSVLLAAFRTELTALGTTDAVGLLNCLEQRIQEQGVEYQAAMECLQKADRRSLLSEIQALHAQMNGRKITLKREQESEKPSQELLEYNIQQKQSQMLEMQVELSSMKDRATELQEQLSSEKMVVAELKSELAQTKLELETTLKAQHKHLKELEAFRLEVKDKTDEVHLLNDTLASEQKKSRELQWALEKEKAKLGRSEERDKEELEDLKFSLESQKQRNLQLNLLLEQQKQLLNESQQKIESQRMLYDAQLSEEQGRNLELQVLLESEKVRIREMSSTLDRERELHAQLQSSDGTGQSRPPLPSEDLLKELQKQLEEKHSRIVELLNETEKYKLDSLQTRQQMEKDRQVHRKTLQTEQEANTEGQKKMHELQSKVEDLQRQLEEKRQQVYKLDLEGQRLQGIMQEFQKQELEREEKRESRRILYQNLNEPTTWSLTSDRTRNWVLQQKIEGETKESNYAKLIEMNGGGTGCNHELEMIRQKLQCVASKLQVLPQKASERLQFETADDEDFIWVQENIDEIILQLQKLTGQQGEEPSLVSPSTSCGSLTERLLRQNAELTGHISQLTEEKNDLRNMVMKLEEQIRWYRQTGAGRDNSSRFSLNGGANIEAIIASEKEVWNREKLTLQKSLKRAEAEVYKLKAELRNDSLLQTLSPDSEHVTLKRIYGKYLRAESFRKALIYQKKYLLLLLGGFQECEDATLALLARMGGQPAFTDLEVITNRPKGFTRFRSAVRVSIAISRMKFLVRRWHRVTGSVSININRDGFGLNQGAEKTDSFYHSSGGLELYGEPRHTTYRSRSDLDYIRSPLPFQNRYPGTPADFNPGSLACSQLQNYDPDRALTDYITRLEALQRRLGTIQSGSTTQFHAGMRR
UniProt Q63HM1: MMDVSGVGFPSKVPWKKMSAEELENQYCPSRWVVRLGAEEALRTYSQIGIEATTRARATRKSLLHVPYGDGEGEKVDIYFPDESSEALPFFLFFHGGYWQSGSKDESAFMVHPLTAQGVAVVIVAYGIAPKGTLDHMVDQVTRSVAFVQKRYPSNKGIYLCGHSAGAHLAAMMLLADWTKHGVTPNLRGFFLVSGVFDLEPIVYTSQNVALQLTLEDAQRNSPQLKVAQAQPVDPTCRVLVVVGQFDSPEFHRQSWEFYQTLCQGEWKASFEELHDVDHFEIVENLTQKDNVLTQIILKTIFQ

What was measured:
Test in all cases: log2 fold change, soluble protein after heating vs DMSO (PISA); higher = thermal stabilisation; K562 cells, 10 uM, 30 min; active = over 0.2 and 3.5 SD of the protein, either way, in both replicates (recomputed)
bafetinib = compound: Cc1ccc(NC(=O)c2ccc(CN3CC[C@H](N(C)C)C3)c(C(F)(F)F)c2)cc1Nc1nccc(-c2cncnc2)n1 [bafetinib]
How it was run: (§1)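 Thermal stability values are relative to control samples and come from duplicates. They are expressed as log2 fold changes. For measurement, K562 cells (2×10^6 cells/mL) received 10 μM compound for 30 min, and aliquots were heated for 3 min over 48°C-58°C, pooled, and extracted at 4°C in PBS with 0.5% NP-40. Soluble protein, the supernatant after 21,000xg for 90 min, was quantified by TMTpro 16plex LC-MS/MS with equalised channel sums.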

[1] = compound: Cc1cccc(CC(=O)N2CCc3c2ccc(-c2cn(C)c4ncnc(N)c24)c3F)n1
How it was run: as §1

nilotinib = compound: Cc1cn(-c2cc(NC(=O)c3ccc(C)c(Nc4nccc(-c5cccnc5)n4)c3)cc(C(F)(F)F)c2)cn1 [nilotinib]
How it was run: as §1

[2] = compound: Cc1nc(Nc2n[nH]c3c2CN(C(=O)N[C@H](CN(C)C)c2ccccc2)C3(C)C)c2sccc2n1
How it was run: as §1

[3] = compound: Cc1ncc(-c2ccnc(Nc3ccc(S(C)(=O)=O)cc3)n2)n1C(C)C
How it was run: as §1

[4] = compound: Cn1cc(-c2ccc3c(c2)CCN3C(=O)Cc2cccc(C(F)(F)F)c2)c2c(N)ncnc21
How it was run: as §1

mubritinib = compound: FC(F)(F)c1ccc(/C=C/c2nc(COc3ccc(CCCCn4ccnn4)cc3)co2)cc1 [mubritinib]
How it was run: as §1

dasatinib = compound: Cc1nc(Nc2ncc(C(=O)Nc3c(C)cccc3Cl)s2)cc(N2CCN(CCO)CC2)n1 [dasatinib]
How it was run: as §1

[5] = compound: Cn1cc(-c2ccc3nnc(C(F)(F)c4ccc5ncccc5c4)n3n2)cn1
How it was run: as §1

tipifarnib = compound: Cn1cncc1[C@@](N)(c1ccc(Cl)cc1)c1ccc2c(c1)c(-c1cccc(Cl)c1)cc(=O)n2C [tipifarnib]
How it was run: as §1

Measured: log2 fold change

ADGRV1 (UniProt Q8WXG9)
inactive: bafetinib 0.055 | [1] -0.066 | nilotinib -0.125 | [2] 0.024 | [3] -0.021 | [4] -0.021 | mubritinib 0.035

ALDH1B1 (UniProt P30837)
inactive: bafetinib 0.03 | [1] -0.018 | nilotinib 0.003 | [2] 0.014 | dasatinib -0.113 | [3] 0.131 | [4] 0.022 | [5] 0.034 | tipifarnib -0.018 | mubritinib 0.059

ADIPOR2 (UniProt Q86V24)
inactive: bafetinib 0.084 | [1] 0.037 | dasatinib 0.046 | [4] 0.064 | tipifarnib 0.142

ADGRE2 (UniProt Q9UHX3)
inactive: bafetinib 0.047 | [1] -0.096 | nilotinib 0.029 | [2] 0.068 | [3] 0.126 | [5] 0.06 | tipifarnib 0.099 | mubritinib 0.095

AK1 (UniProt P00568)
inactive: bafetinib 0.01 | [1] -0.007 | nilotinib 0.02 | [2] -0.003 | dasatinib -0.12 | [3] 0.01 | [4] 0.048 | [5] 0.013 | tipifarnib -0.074 | mubritinib 0.059

ALG13 isoform 2 (UniProt Q9NP73)
inactive: bafetinib -0.021 | [1] 0.07 | nilotinib 0.076 | [2] 0.056 | dasatinib 0.007 | [3] -0.035 | tipifarnib -0.016 | mubritinib -0.102

ALDH2 isoform 2 (UniProt P05091)
inactive: bafetinib -0.029 | [1] -0.124 | [5] 0.244 | tipifarnib 0.015

AGAP3 isoform 4 (UniProt Q96P47)
inactive: bafetinib -0.144 | nilotinib 0.138 | [2] -0.016 | [3] -0.049 | [4] -0.077 | [5] -0.082 | tipifarnib -0.012 | mubritinib -0.156

AKR1D1 (UniProt P51857)
inactive: bafetinib 0.03 | [1] -0.042 | dasatinib 0.018 | [4] -0.04 | tipifarnib 0.392

AFG1L (UniProt Q8WV93)
inactive: bafetinib -0.041 | nilotinib -0.061 | [2] -0.048 | dasatinib -0.023 | [3] 0.043 | [4] 0.077 | [5] 0.109 | tipifarnib 0.19 | mubritinib 0.031

ADCY3 (UniProt O60266)
inactive: [1] 0.003 | dasatinib -0.218 | [4] 0.109 | [5] 0.091 | tipifarnib -0.056

AKAP11 (UniProt Q9UKA4)
inactive: [1] 0.04 | [4] -0.445

AIF1 (UniProt P55008)
inactive: bafetinib 0.035 | [5] 0.153 | tipifarnib 0.051

AMBRA1 isoform 5 (UniProt Q9C0C7)
inactive: bafetinib 0.009 | dasatinib -0.051 | [4] 0.026 | mubritinib 0.16

AGTPBP1 isoform 3 (UniProt Q9UPW5)
inactive: dasatinib -0.105 | [5] -0.098 | mubritinib 0.246

ADCK5 (UniProt Q3MIX3)
inactive: [5] 0.02

ADGB (UniProt Q8N7X0)
inactive: [1] -0.108 | tipifarnib 0.113 | mubritinib 0.116

ADD2 isoform 9 (UniProt P35612)
inactive: bafetinib 0.021 | [5] -0.002 | tipifarnib 0.149 | mubritinib -0.125

2 neighbouring entries from above, quoted:
AGTPBP1 isoform 3 (UniProt Q9UPW5)
inactive: dasatinib -0.105 | [5] -0.098 | mubritinib 0.246

ADCK5 (UniProt Q3MIX3)
inactive: [5] 0.02

(continued)

ALDH7A1 (UniProt P49419)
inactive: [1] 0.111 | mubritinib -0.182

AGAP1 (UniProt Q9UPQ3)
inactive: dasatinib -0.122 | [4] -0.005 | [5] 0.053

AGTRAP isoform 2 (UniProt Q6RW13)
inactive: [1] -0.053

ALOX12B (UniProt O75342)
inactive: bafetinib 0.112 | dasatinib -0.751 | [5] 0.729 | tipifarnib 0.5 | mubritinib -0.081

ADNP (UniProt Q9H2P0)
inactive: [1] -0.271 | nilotinib 0.057 | [2] 0.025 | [3] -0.102 | mubritinib -0.435

AKR1C1 (UniProt Q04828)
inactive: mubritinib 0.158

AKIRIN2 (UniProt Q53H80)
inactive: [1] 0.05 | nilotinib -0.082 | [2] -0.06 | dasatinib 0.025 | [3] -0.058 | [4] 0.011 | [5] 0.037 | tipifarnib 0.059 | mubritinib 0.027

AKNA (UniProt Q7Z591)
inactive: [4] -0.134 | tipifarnib 0.215

AMZ2 (UniProt Q86W34)
inactive: dasatinib -0.032 | [5] -0.1 | tipifarnib 0.066 | mubritinib -0.141

ADGRL1 (UniProt O94910)
inactive: [1] 0.082

AKAP9 isoform 6 (UniProt Q99996)
inactive: nilotinib 0.007 | [2] -0.084 | [3] 0.324 | [4] -0.107 | [5] 0.135 | mubritinib 0.141

ADGRD1 isoform 4 (UniProt Q6QNK2)
inactive: dasatinib -0.023 | [4] -0.223 | mubritinib -0.508

AFMID isoform 2 (UniProt Q63HM1)
inactive: mubritinib 0.347

ANAPC15 isoform 2 (UniProt P60006)
inactive: [4] -0.116 | tipifarnib 0.038

AHSP (UniProt Q9NZD4)
inactive: nilotinib 0.153 | [2] -0.115 | [3] 0.004 | [5] 0.15 | mubritinib 0.024

AMMECR1 (UniProt Q9Y4X0)
inactive: dasatinib -0.193 | [4] -0.014 | [5] -0.124

ADD3 isoform 2 (UniProt Q9UEY8)
inactive: [1] 0.05 | dasatinib -0.116 | [4] 0.152 | [5] -0.026 | tipifarnib -0.067 | mubritinib -0.007

ALS2 (UniProt Q96Q42)
inactive: [5] 0.173 | tipifarnib 0

ADCY7 (UniProt P51828)
inactive: [1] -0.254 | nilotinib 0.017 | [2] -0.075 | dasatinib 0.01 | [3] 0.186 | [4] -0.181 | [5] 0.185

ALKBH7 (UniProt Q9BT30)
inactive: [1] -0.076 | [4] -0.244 | [5] 0.015

AGGF1 (UniProt Q8N302)
inactive: bafetinib -0.166 | mubritinib 0.246

AIG1 (UniProt Q9NVV5)
inactive: [1] -0.009 | dasatinib 0.308

AKTIP isoform 2 (UniProt Q9H8T0)
inactive: bafetinib 0.206 | tipifarnib -0.062 | mubritinib 0.054

ALOX5 (UniProt P09917)
inactive: dasatinib 0.186

AMDHD2 (UniProt Q9Y303)
inactive: [1] 0.018 | dasatinib -0.136 | [4] -0.025 | tipifarnib -0.015
